Experimental data: publication PMC3591269

Chains of the proteins cited; added tags and fusions are not shown. Lines headed by an entry give the natural chain unless they say otherwise; changes in a name come on top. Residues count along the entry.
UniProt Q9LG05: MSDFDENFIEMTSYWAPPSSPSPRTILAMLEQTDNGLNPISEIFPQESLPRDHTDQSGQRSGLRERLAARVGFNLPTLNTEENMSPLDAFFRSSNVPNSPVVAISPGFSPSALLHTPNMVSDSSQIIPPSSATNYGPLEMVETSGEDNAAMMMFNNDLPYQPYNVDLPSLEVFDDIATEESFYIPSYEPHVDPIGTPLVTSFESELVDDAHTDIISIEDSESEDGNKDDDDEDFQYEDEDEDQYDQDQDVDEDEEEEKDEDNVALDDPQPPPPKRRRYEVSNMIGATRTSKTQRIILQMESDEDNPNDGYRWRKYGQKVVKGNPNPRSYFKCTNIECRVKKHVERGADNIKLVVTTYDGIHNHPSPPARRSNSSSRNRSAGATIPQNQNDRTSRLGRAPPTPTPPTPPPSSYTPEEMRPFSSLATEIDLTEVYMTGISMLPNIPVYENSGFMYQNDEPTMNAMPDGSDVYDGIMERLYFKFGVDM
MINI3 N302:MYC:His: residues 1-302 of Q9LG05
MINI3 C189:MYC:His: residues 297-485 of Q9LG05
UniProt Q6R8G6: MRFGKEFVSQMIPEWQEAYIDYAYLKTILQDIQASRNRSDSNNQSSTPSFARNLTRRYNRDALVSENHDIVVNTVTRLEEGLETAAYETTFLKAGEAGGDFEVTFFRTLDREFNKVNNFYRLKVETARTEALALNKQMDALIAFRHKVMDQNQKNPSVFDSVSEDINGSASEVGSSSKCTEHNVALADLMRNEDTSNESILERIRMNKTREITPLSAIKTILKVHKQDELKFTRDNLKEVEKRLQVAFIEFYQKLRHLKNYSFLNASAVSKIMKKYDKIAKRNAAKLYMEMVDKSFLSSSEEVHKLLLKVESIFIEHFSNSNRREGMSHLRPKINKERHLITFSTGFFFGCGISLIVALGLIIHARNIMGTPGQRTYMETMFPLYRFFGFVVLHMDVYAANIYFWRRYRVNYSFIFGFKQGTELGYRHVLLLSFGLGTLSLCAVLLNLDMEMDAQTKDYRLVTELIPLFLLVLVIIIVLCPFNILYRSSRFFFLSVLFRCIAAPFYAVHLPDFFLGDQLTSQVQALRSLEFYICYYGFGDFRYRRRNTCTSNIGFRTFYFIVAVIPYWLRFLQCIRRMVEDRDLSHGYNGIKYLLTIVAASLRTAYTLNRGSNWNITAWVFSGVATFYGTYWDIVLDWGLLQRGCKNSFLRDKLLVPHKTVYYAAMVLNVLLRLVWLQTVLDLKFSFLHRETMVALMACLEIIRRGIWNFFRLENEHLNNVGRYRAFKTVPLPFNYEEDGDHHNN

Experiments:
[1] = target: MINI3 N302:MYC:His (Arabidopsis thaliana) (UniProt Q9LG05); assay: pull-down; His affinity-precipitation from protein extracts of Nicotiana leaves after transient expression (harvested 5 days after infiltration), cold co-precipitation buffer
[2] = target: MINI3 C189:MYC:His (Arabidopsis thaliana) (UniProt Q9LG05); assay: as above

Question: What does the source list for “SHB1:GFP (full-length SHB1 fused to GFP at its C-terminus) (from UniProt Q6R8G6)”?
Answer: binding [1]: binds; binding [2]: no binding

No constants are given. Whether binding was seen depends on the method and setting. Binding seen in cells or lysates may run through a third protein. For some assays here: A result given as binding can be weak or reduced; the word gives no strength.
